Here are results for 1 substance from article PMC8039559.

Amino acid sequences for entries named in this document (tags omitted). A change or cut given only in a name is not applied to a line headed by its entry.
UniProt P21243: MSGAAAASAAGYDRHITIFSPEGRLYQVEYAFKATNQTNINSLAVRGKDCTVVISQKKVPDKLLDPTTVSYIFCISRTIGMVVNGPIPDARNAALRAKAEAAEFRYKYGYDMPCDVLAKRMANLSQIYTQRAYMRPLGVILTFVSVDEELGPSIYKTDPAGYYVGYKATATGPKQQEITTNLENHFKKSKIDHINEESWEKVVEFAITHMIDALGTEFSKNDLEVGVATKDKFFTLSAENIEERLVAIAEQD
UniProt P38737: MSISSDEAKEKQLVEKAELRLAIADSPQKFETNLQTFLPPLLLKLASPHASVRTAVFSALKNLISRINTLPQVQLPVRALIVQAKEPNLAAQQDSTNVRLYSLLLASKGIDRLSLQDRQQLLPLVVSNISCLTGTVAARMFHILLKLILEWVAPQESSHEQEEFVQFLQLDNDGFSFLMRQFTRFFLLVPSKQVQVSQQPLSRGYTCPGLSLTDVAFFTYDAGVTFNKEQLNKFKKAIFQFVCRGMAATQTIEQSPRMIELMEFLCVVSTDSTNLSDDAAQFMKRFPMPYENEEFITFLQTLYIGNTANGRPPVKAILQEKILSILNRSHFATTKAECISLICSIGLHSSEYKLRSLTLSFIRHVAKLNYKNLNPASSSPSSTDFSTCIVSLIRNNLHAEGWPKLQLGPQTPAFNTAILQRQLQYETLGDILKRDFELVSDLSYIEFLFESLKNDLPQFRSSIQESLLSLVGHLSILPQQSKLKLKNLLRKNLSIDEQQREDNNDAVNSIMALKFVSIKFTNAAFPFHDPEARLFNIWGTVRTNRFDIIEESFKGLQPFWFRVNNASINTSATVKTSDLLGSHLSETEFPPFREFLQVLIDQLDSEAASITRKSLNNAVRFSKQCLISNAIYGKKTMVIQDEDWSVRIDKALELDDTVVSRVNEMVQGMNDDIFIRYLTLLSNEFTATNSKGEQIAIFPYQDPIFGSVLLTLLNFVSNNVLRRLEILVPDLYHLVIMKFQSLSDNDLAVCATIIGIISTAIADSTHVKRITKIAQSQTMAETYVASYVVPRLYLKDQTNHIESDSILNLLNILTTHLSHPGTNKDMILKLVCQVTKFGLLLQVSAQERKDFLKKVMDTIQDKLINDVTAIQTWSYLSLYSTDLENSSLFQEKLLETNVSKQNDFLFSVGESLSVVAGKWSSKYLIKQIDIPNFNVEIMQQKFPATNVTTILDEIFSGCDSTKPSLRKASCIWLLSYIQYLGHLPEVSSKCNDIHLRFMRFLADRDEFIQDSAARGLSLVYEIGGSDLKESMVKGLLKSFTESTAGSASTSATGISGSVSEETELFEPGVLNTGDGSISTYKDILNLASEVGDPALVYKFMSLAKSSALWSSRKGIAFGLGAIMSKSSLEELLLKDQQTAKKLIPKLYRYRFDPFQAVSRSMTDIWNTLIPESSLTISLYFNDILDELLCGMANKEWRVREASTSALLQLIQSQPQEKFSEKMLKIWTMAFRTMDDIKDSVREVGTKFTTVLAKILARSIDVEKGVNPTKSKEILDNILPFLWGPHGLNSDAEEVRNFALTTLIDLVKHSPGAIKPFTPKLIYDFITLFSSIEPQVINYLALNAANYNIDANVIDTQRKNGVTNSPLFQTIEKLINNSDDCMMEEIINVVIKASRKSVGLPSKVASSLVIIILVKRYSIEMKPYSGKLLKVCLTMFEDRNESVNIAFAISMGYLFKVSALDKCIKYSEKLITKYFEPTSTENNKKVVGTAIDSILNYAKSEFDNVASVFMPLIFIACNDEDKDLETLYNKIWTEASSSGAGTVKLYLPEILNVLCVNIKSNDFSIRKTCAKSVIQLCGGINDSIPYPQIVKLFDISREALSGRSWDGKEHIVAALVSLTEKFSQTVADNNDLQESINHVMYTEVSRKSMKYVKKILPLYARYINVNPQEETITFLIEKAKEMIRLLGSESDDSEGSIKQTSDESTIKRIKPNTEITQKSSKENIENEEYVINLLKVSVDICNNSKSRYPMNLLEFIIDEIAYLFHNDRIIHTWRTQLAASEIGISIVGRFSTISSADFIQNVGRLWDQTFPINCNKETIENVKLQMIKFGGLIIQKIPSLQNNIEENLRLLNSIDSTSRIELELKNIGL

No constants are given. Whether binding was seen depends on the method and setting. Some binding calls cover weakened binding; strength is not graded here.

The target in the assay is proteasome core particle (S. cerevisiae (endogenous in yeast)) (UniProt P21243). In words: native gel or EMSA; whole-cell yeast lysates by cryo-grinding (50 mM Tris-HCl pH 7.5, 5 mM MgCl2, 1 mM ATP, 1 mM EDTA), 300 ug on a 3.5% acrylamide native gel, 96 V, 2.5 h, 4 °C; fluorescence scan (GFP, Venus) and in-gel LLVY-AMC activity; cells in log phase, after prolonged growth in YPD, 37 °C, nitrogen or glucose starvation, MG132, atg7Δ, rpn4Δ.

With Ecm29 (from UniProt P38737 1-1868), the binding entry is listed as “binds”.
